# PubChem BioAssay AID1224827, NIAID – 2016
# Assay: 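Identify regulators of the macrophage TNF-alpha response to bacterial LPS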 (follow-up of hits)
# System: RAW264.7 G9 mouse macrophage reporter clone
# Reagent: single siRNA against mouse genes, 100 nM siRNA
# Duration: siRNA for 2 days, then LPS about 16 h
# Treatment: bacterial lipopolysaccharide (LPS), 10 ng/ml, cells fixed after overnight (about 16 h) stimulation
# Measurement: 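TNF promoter reporter red fluorescence in nuclei, background subtracted, normalised per plate and to non-targeting control siRNA, as z-scores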
# Scale: TNF reporter z-score, mean: higher = stronger Tnf promoter reporter signal
# Call rule: 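An siRNA is called active when its mean z-score over replicates is at least +2 or at most -2; control wells get no call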
# This is one part, drawn at random, of about 3,800 deposited reagents. About 2,200 of them (57%) were called active. 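Active means a strong reporter change in either direction; calls are per siRNA, not per gene; qiagen siRNAs gave weaker effects.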 Not all columns of the deposit are shown. Reagent sequences are not shown.
The opening 4 entries as a preview:
Target gene,PubChem SID,"TNF reporter z-score, mean",Call
Plpp1,SID315484665,-1.84,inactive
Plpp1,SID315484666,-3.21,active
Plpp1,SID315484667,-3.26,active
Plpp1,SID315484668,0.322,inactive

The list itself, from the start:
Target gene,PubChem SID,"TNF reporter z-score, mean",Call
Plpp1,SID315484665,-1.84,inactive
Plpp1,SID315484666,-3.21,active
Plpp1,SID315484667,-3.26,active
Plpp1,SID315484668,0.322,inactive
Plpp1,SID315484669,-2.43,active
Plpp1,SID315484670,-3.88,active
Psmb4,SID315484692,2.17,active
Psmb4,SID315484693,-1.34,inactive
Psmb4,SID315484694,-5.48,active
Psmb4,SID315484695,6.54,active
Psmb4,SID315484696,5.12,active
Psmb4,SID315484697,-0.241,inactive
Cetn3,SID315483948,-0.873,inactive
Cetn3,SID315483949,-2.89,active
Cetn3,SID315483950,-3.75,active
Cetn3,SID315483951,2.4,active
Cetn3,SID315483952,2.08,active
Cetn3,SID315483953,-2.78,active
Rit2,SID315484788,-1.95,inactive
Rit2,SID315484789,-2.67,active
Rit2,SID315484790,-4.01,active
Rit2,SID315484791,1.77,inactive
Rit2,SID315484792,2.45,active
Rit2,SID315484793,-0.468,inactive
Klf12,SID315484449,-2.38,active
Klf12,SID315484450,-2.62,active
Klf12,SID315484451,-5.05,active
Hnrnpa1,SID315484323,0.669,inactive
Hnrnpa1,SID315484324,0.7,inactive
Hnrnpa1,SID315484325,-4.36,active
Hnrnpa1,SID315484326,5.13,active
Hnrnpa1,SID315484327,0.416,inactive
Hnrnpa1,SID315484328,-1.94,inactive
Pon2,SID315488997,0.376,inactive
Pon2,SID315488998,-4.49,active
Pon2,SID315488999,-4.95,active
Pon2,SID315489000,-0.399,inactive
Pon2,SID315489001,-0.613,inactive
Pon2,SID315489002,-3.7,active
